In patent US20050209310A1, “Methods for modulating tumor growth and metastasis” (priority 2000, published 2005):
At least one structure is not confirmed: it was looked up by name or label, or the drawing left a doubt.

Assay: Hematological analysis of whole blood, Phase I trial of CA4P
Assay type: in vivo, human
Conditions: after treatment (4 hours), increased from approximately 4:1 (FIG. 19)
Procedure: Hematological analysis was performed on whole blood obtained from patients participating in a Phase I trial of CA4P (see Rustin et al., J. Clin. Oncol. (2003)). All patients had histologically confirmed tumors and were either not amenable to standard curative therapy or were refractory to conventional therapy. Blood work was obtained from each patient 1 minute prior to treatment, every 15 minutes for the first hour post-treatment, and at 1.5, 2, 4, 8, 12 and 24 hours following infusion with the first dose of CA4P (52-114 mg/m^2). Art-recognized hematology methods were used in the analysis.
All full or differential blood cell counts were performed using a hematology flow cytometer (Technicon H2, Bayer Inc.). Total white blood cell (“WBC” or leukocyte) and red blood cell (“RBC” or erythrocyte) counts were established using direct laser flow cytometry. A differential count for leukocyte cells of myeloid origin (e.g. eosinophils, neutrophils, monocytes) was obtained by fluorescent flow cytometry of cells stained for myeloperoxidase. Unstained cells were assumed to be lymphocytes and basophils. […] The haematocrit (Hct) was calculated from the RBC count and the MCV. The coagulant status of each blood sample was determined by measuring fibrinogen content, prothrombin time, and kaolin partial thromboplastin time (when kaolin is used instead of micronised silica as the activator). […]

For `COc1ccc(/C=C\c2cc(OC)c(OC)c(OC)c2)cc1OP(=O)(O)O` [CA4P, combretastatin A-4 phosphate], the “ratio of neutrophils to lymphocytes” value was “approximately 11:1”.
